Source: paper PMC4753070 (Bioorganic & medicinal chemistry letters, 2016)

Test system: histone H3K9 acetylation in mouse forebrain primary neuronal cultures
Assay: Neuronal histone acetylation assay, H3K9ac immunofluorescence
Type: cell-based
Conditions: Neuron, 24 h, read-out: EC50 for acetylation level of H3K9

O=C(CCCCCCC(=O)Nc1ccccc1)NO [SAHA, suberoylanilide hydroxamic acid, reference compound]
EC50: 950 nM
